This assay has as its target T1, Fzy protein (Drosophila melanogaster) (UniProt Q24044).
T1 sequence: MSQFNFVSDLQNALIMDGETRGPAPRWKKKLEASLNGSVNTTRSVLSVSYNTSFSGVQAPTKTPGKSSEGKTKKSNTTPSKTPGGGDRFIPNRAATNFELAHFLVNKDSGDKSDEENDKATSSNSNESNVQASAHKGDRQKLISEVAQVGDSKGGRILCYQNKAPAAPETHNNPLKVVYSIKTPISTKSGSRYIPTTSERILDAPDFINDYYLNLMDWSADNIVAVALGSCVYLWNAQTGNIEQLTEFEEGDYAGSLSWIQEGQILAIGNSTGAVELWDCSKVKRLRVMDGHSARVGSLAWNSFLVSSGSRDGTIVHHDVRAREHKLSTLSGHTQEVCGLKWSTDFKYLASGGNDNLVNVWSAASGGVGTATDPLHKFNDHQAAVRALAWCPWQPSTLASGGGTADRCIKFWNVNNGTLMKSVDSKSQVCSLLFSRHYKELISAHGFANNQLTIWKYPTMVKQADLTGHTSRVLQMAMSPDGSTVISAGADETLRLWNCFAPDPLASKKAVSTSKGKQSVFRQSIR
Briefly: affinity purification with mass spectrometry; affinity purification of protein complexes from Drosophila cultured cells or Drosophila embryos; Mascot search against the FlyBase protein database, significance threshold p < 0.05, ions score cut-off 30.

By UniProt entry, the sequences of proteins in these tests, tags left out. Where a name states a change or a piece, a line headed by the entry shows the natural chain unless it says otherwise.
UniProt A1Z6I7: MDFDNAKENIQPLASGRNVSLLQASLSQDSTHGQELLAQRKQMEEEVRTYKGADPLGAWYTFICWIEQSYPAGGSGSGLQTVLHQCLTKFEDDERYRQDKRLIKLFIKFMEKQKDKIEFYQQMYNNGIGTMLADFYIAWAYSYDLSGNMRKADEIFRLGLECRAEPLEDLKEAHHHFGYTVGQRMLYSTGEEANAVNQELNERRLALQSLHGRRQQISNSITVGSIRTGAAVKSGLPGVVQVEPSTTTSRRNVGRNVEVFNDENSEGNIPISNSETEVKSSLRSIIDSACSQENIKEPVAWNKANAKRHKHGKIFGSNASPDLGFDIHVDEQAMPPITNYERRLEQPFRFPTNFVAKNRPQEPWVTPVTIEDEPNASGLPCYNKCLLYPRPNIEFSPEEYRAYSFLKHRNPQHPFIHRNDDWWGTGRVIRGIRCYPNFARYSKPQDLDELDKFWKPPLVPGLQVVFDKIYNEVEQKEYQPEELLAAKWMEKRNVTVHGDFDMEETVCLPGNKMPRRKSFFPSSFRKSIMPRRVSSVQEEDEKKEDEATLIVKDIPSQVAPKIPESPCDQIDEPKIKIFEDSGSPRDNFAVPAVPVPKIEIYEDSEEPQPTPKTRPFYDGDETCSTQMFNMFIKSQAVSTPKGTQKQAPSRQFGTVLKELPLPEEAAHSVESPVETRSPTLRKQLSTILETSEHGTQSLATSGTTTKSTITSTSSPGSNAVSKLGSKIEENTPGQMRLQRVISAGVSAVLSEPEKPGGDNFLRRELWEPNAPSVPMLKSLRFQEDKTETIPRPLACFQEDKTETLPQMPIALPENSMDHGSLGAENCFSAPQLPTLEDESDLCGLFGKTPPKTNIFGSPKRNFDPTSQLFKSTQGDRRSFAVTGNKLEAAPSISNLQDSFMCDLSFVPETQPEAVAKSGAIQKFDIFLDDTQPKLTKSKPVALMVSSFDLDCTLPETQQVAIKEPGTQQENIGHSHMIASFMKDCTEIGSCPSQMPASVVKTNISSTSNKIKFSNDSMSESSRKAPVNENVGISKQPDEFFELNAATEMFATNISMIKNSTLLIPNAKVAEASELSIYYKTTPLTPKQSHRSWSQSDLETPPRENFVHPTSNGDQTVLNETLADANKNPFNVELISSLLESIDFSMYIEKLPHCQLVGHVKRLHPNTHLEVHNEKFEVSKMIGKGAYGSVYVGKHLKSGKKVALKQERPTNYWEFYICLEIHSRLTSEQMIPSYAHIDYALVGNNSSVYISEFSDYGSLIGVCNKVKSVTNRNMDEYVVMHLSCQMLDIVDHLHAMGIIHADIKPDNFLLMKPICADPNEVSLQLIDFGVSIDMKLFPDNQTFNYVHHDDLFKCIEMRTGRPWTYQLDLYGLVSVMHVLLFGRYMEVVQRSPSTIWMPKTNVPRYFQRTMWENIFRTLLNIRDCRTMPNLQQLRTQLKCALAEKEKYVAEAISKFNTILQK

Results are given in words; binding and its absence hold for the method and conditions named. Binding seen in cells or lysates may run through a third protein. These calls come from enrichment with a bait or labelling near it, and not all partners need be listed.

For BubR1 (from UniProt A1Z6I7), the binding result is given as “binds”. For the substance Spc105R (Drosophila melanogaster), the binding entry is on record as “binds”.
